Out of some 53,000 sequences screened, about 3,700 (7%) were called active.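 Rule for the calls: active = gene knockdowns whose robust z-score for IL-1 alpha signal is at least 2 or at most -2, so actives lie on both sides; inactive = the rest.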 This is one part of the list.

A short description of this experiment: Components of the Cytosolic LPS Sensing Pathway: Gene Identification via Genome-wide siRNA Screen.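 Note: robust z of the log signal after scaling to non-targeting control siRNA wells of the plate.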 The conditions noted are these: RAW264.7 macrophages, IL-1a HTRF, actives lie on both sides, screened at 100 nM (by protocol), cells primed 5 h with Pam3CSK4 first. An outline of the steps:
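Cells (RAW264.7, 1×10^4 per well) were transfected with siRNA at 100 nM and cultured 48h at 37 degrees C. Pam3CSK4 was added for 5 hours; LipidA transfection followed for 24 hour. IL-1a was then measured by HTRF.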
Background: TR-FRET usually uses a lanthanide donor and a delayed reading to cut background.
For the sequence CCAAAACGGAAUCCUAAUATT against Nyap2, the z-score was inactive: -1.34.
Turning to GGUUCAUGUGAACUUGCUGTT against Sesn2, the z-score is inactive: -1.99.
Take GGAUGUAUGUGCCAAGAUCTT against Rd3: the z-score was inactive: -0.759.
On to GCCAACUAUCUUUUCUUAGTT against Ppp1cb, for which the z-score is inactive: 0.136.
On to GGGAAGAAUUCAGAAAAACTT against Cmc1, for which the z-score was inactive: -1.39.
Take CCAUAUUGAGGAAAAAUCCTT against Zfp788: the z-score is inactive: -1.31.
Under CCUUAUGCAUGACUUGAGUTT against Exoc4 stands inactive: -0.2.
For GCUUCUGUUCGUUACGUCCTT against Ndufc2, the z-score is active: 2.55.
With GGUGCUUCUGAGCAAGAAUTT against Adra2b, the z-score was inactive: -1.26.
Take GGACUUAAAACAGAAAGCATT against Haus1: the z-score was active: -2.79.
Regarding GCCGUCAUCACUGAAUUCATT against Olfr242, the z-score was inactive: 0.239.
GGAAAAAAGGAAUUGACUUTT against Nebl: the z-score is inactive: 1.65.
Regarding GCACACCGUUUACCCUACCTT against Gapt, the z-score is inactive: -1.32.
Next, GGUCUUUCAAAUACCCAAATT against Rcor2: inactive: 0.638; “CCCAGAAGACCCGAACUUUTT against E130006D01Rik”: inactive: 0.378; GGGAUGAGUUCUCCUACCATT against Srm: inactive: -1.51.
With GCAAGGUGUAGAUUUUACATT against Nrep, the z-score is inactive: 0.954.
In the case of CCACUUGUACGCACUCAAGTT against Ang4, the z-score was inactive: 0.406.
Next, GCACAAUUAGACUUCUUCCTT against Vat1: inactive: -0.093; GGACCUGGUGGAGAACAAGTT against Kcnj12: inactive: 1.64.
Take GGUCAUCGAGACUCAGGAUTT against Ihh: the z-score was inactive: 1.4.
Regarding GCACUUCCGACUUUUUCACTT against Mettl24, the z-score was inactive: -1.69.
On to CGGACAAGAUAAAGUGUGUTT against Lypd9, for which the z-score is inactive: -1.07.
Next, GCGCAGUUGCAAACCACACTT against Clec4g: inactive: 0.778; GCGGCUUUAUUCACACUUUTT against Ufsp1: inactive: 0.272; GGGCGGAGCAUUUUUCUUGTT against Ube2d2b: inactive: 0.483.
Under GCGACAUCUGGAAAAAUACTT against Atp2a1 stands inactive: -0.406; under GGACAAGGAUGCAAUUAUCTT against Hoatz, inactive: -1.7.
With GCAAGGUGUGGAAUGACCUTT against Snx8, the z-score is inactive: -1.33.
On to CCUAUGUACCCACUGAAAUTT against Tmem63c, for which the z-score was inactive: -1.6.
On to GGGACAAUGGCAAAAUAAATT against Serpinb11, for which the z-score is inactive: -1.28.
For GGUGAUUCACAUACUUUAUTT against Vps54, the z-score is inactive: 0.612.
Next, GGUGUCCUAUGUGAAGGAGTT against Trmu: inactive: -0.0884.
Turning to GCCUGAUGGGCACUUUGAATT against Socs6, the z-score was inactive: 0.0945.
For the sequence GCAAAUUAGGUUGUGAAUGTT against Gab1, the z-score was inactive: -0.924.
GUCUUAAAAUUCCUGCUCCTT against Mrgprg: the z-score is inactive: -0.549.
Under GGUGGAGCAGAUGAAGAACTT against Hspbp1 stands inactive: 0.447; under GCAGCUCACUUUGGAUGACTT against Irf4, inactive: 1.17; under GCAUGUUUUCCACAGCGAUTT against Vmn1r41, inactive: -0.132.
Regarding GGAGUGAAUGAAUGAAUGATT against Vsx1, the z-score is inactive: -0.605.
For the sequence GGCCACCAGAAUUGUUCACTT against Gm5136, the z-score was inactive: 0.981.
Consider CCUGAAUCUAGCCAUUCAATT against Olfr1080, for which the z-score is inactive: -0.546.
As for GGCUGAGUUUGGUAAGAGATT against Scly, the z-score is inactive: 0.124.
Next, GGAAUCGGCAGUCUCAUUCTT against Nfkbiz: inactive: 0.935; CCUAUCCAGAUGUCAUUAATT against Hoxa11: inactive: 0.849.
Under GGCCUAUGCGGAGGAGUUATT against Hsdl1 stands inactive: 0.268.
Regarding CCUCAACAAAUCAUCCUAATT against Rgs18, the z-score was inactive: -1.08.
Turning to GGAUGCUUGGCUCAAUUACTT against Olfr992, the z-score is inactive: 0.891.
Next, GGUCUGUCGGAAAAUCUGGTT against Agfg2: inactive: 0.779; GCAUAGAGGACUACAACGATT against Optc: inactive: 0.329.
As for GGCUAACUCCUUAAAACCUTT against Aldh18a1, the z-score was inactive: -0.372.
Under GGUGCUAAGCAUGAAGCCUTT against Stk16 stands inactive: -1.01; under GCUCAUCGUACCAUUUUCUTT against Trim12c, inactive: 0.699; under CCUGGGACCUAUAACUCCATT against Lexm, inactive: -0.575.
For the sequence GGUCAUCUGAUAAAUGAGUTT against Klhl30, the z-score was inactive: -0.206.
As to GGAAGCAGUAAGAAAUCAGTT against Clpx, the z-score was inactive: 1.42.
For the sequence GGACAAUGAUUACGACCACTT against Cacng4, the z-score was inactive: -0.917.
For the sequence CGACCGUUGUUAUGGGCAATT against Pla2g5, the z-score is inactive: 1.93.
With GGAGUUUGAGACACUCUGCTT against Atg4d, the z-score is inactive: 0.596.
Turning to GCUGGUACUGACGAAAUGGTT against Adamts3, the z-score was inactive: -0.144.
In the case of GCCCAAUAACCAAAUGCCATT against Tox, the z-score is inactive: -1.1.
Under GGGACAAGACUGUAUCUUUTT against Fgf4 stands inactive: 0.278; under GCACCUCUGACAAGGUUCUTT against Plin1, active: 2.65; under GGAGUGAAGGGUCAUCCAGTT against Col9a2, active: 5.07.
Turning to CCGUAAACCUAAAUUAGGATT against Dstyk, the z-score is inactive: -0.371.
Regarding CCUGUAUGGAGUAAUGGAATT against Eif4ebp3, the z-score was inactive: 0.13.
On to GGUAUGGAUCAAGGUUCUUTT against Gja6, for which the z-score is active: 3.21.
Consider GCUGGAAAGCUCACAGUUATT against Faah, for which the z-score was inactive: 1.09.
For GGAGAUUCAGAUCAAAGAGTT against Scyl1, the z-score was inactive: -0.182.
